About 4,000 (1%) of roughly 390,000 compounds were called active. The shares of active, inactive and inconclusive entries below differ from those in the screen. Calls follow the shape of the dose curve; as a rule, active = well fitted inhibition curve with a large enough effect; inconclusive = small, poorly fitted or top-dose-only effect, or another doubt; inactive = no such curve, though single readings can be large or run the other way. Potencies beside an inconclusive call are fits to weak or partial responses and may not hold up.
Each molecule was assayed against DNA polymerase iota (Homo sapiens) (UniProt Q9UNA4) (assay: qHTS for Inhibitors of Polymerase Iota). Conditions: Pol iota fluorescent replication assay, 10 min; series mostly up to 115 µM.
Procedure, shortened: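 Fluorescent replication assay read twice, at 0 min and 10 min after adding 50 nM (final) substrate. Enzyme (10 nM) and compounds were first incubated 15 min at room temperature; enzyme-free buffer wells were negative controls.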
Potency is read from the fitted curve at half-maximal effect.

Chains of the proteins cited; added tags and fusions are not shown. Lines headed by an entry give the natural chain unless they say otherwise; changes in a name come on top.
UniProt Q9UNA4: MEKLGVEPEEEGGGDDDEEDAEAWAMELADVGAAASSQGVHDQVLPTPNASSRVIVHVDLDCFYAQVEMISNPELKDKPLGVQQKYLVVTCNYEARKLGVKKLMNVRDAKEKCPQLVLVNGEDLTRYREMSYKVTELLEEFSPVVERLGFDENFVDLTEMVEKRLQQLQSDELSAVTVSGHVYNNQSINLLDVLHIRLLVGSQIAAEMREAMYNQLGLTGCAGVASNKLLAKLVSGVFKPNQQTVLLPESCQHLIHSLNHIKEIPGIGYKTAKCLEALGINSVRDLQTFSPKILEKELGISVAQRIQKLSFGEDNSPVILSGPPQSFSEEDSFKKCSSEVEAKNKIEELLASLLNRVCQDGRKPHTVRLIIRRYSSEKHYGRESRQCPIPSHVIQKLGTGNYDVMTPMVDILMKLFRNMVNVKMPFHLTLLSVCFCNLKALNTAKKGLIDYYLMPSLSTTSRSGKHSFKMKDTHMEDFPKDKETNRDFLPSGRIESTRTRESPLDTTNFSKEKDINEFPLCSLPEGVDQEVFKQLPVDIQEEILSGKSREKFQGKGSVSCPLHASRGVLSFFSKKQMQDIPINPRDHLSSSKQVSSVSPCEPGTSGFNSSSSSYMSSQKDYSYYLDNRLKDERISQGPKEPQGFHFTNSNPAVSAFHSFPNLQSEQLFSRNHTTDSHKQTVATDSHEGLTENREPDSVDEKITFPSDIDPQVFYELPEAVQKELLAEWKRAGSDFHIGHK

Q: How did the Potency turn out when `Cc1ccc(CN(C(=O)COc2cc(C)c(Cl)c(C)c2)c2ccccn2)o1` was run?
A: The Potency was “inactive”.

Q: With `Fc1cccc(Cn2cc(C(=S)N3CCCCC3)c3ccccc32)c1` as the molecule, how does the Potency read?
A: Its Potency is inconclusive: 15.8 µM [inhibitor, partial curve, poor fit].

Q: With `CC1(c2nnc(Cc3ccccc3)o2)CC(c2cccc([N+](=O)[O-])c2)=NO1` (stereo unspecified) as the molecule, how does the Potency read?
A: The Potency was inconclusive: 31.6 µM [inhibitor, partial curve, poor fit].

Q: `c1ccc(COc2ccc(CNCc3cccs3)cc2)cc1` was tested. Which Potency did it give?
A: Its Potency is inconclusive: 39.8 µM [inhibitor, single point].

Q: `COc1cc(C2CC(=O)Oc3c2c(=O)[nH]c2ccccc32)cc(OC)c1OC` (stereo unspecified) was tested. Which Potency did it give?
A: Its Potency is inconclusive: 14.1 µM [inhibitor, partial curve].

Q: `Cc1cccn2c(=O)c3cc(C#N)c(=O)n(-c4nnc(SCc5ccc(Cl)cc5)s4)c3nc12` was tested. Which Potency did it give?
A: The Potency was inconclusive: 89.1 µM [inhibitor, single point].

Q: With `CC1=C(C(=O)Nc2ccccc2C)C(c2ccccn2)n2ncnc2N1` (stereo unspecified) as the molecule, how does the Potency read?
A: Its Potency is “inactive”.

Q: `Cc1cccc(C)c1NC(=O)CS(=O)(=O)c1nc(-c2ccc(Cl)cc2)cn1-c1ccccc1` was tested. Which Potency did it give?
A: The Potency was inconclusive: 56.2 µM [inhibitor, single point].

Q: With `O=C(CCCCCCCCC(=O)N/N=C/c1ccco1)N/N=C/c1ccco1` as the molecule, how does the Potency read?
A: Its Potency is inconclusive: 56.2 µM [inhibitor, partial curve, poor fit].

Q: Which Potency does the source give for `O=C(COc1ccc(/C=N/NC(=O)c2ccncc2)cc1)Nc1cccc([N+](=O)[O-])c1` here?
A: The Potency was inconclusive: 39.8 µM [inhibitor, partial curve, poor fit].

Q: Which Potency does the source give for `O=C(Oc1ccc(C(=S)N2CCOCC2)cc1Br)c1cc(Cl)ccc1Cl` here?
A: Its Potency is inconclusive: 35.5 µM [inhibitor, partial curve, poor fit].

Q: For `COc1ccc(NC(=O)CSc2nc(-c3cccc(C)c3)[nH]c2-c2ccccc2)cc1OC`, which Potency is on record?
A: Its Potency is inconclusive: 79.4 µM [inhibitor, partial curve, poor fit].

Q: Which Potency does the source give for `CC(=O)N1CCc2c(sc3c2c(=O)n(CCc2ccccc2)c(=O)n3Cc2ccccc2C)C1` here?
A: Its Potency is “inactive”.

Q: Which Potency does the source give for `Cc1ccc(C)c(Cn2c(=O)c3c(nc4n3CCN4c3ccccc3)n(C)c2=O)c1` here?
A: Its Potency is “inactive”.

Q: With `O=C1C(=O)N(O)C2CCCCC2N1O` (stereo unspecified) as the molecule, how does the Potency read?
A: The Potency was “inactive”.

Q: Which Potency does the source give for `Cc1cc(C)c2c(c1)c(C)cc1nnc(SCc3ccccc3C#N)n12` here?
A: The Potency was “inactive”.

Q: `Cc1cccc(C(=O)n2cnnc2N)c1` was tested. Which Potency did it give?
A: Its Potency is inconclusive: 35.5 µM [inhibitor, partial curve, poor fit].

Q: Which Potency does the source give for `COCCCn1c(C23CC4CC(CC(C4)C2)C3)n[nH]c1=S` here?
A: The Potency was inconclusive: 39.8 µM [inhibitor, partial curve, poor fit].

Q: `O=C(O)CCc1nnc(SCC(=O)Nc2cccc(C(F)(F)F)c2)[nH]c1=O` was tested. Which Potency did it give?
A: The Potency was “inactive”.

Q: Which Potency does the source give for `O=C(NCCC1=CCCCC1)c1ccc(Cl)c(S(=O)(=O)Nc2ccccc2)c1` here?
A: The Potency was inconclusive: 56.2 µM [inhibitor, partial curve, poor fit].

Q: Which Potency does the source give for `Cc1cc(=O)oc2cc(OCc3ccc(C(=O)OCC(=O)N(C)C4CCS(=O)(=O)C4)cc3)ccc12` (stereo unspecified) here?
A: Its Potency is “inactive”.

Q: `O=C1NC(=Nc2ccccc2Cl)S/C1=C\c1cccc([N+](=O)[O-])c1O` was tested. Which Potency did it give?
A: Its Potency is inconclusive: 14.1 µM [inhibitor, full curve, poor fit].

Q: Which Potency does the source give for `O=C(CCSc1ccc(F)cc1)Nc1ccc(-n2cnnn2)cc1` here?
A: The Potency was inconclusive: 39.8 µM [inhibitor, partial curve, poor fit].

Q: How did the Potency turn out when `COc1cc2c3nnc(-c4ccc(F)cc4)c-3cn(Cc3ccc(F)cc3)c2cc1OC` was run?
A: The Potency was “inactive”.

Q: With `CCc1ccc(NC(=O)/C(C#N)=C\c2ccc(OC)c(C(=O)O)c2)cc1` as the molecule, how does the Potency read?
A: The Potency was “inactive”.

Q: `CCN(CC)C(=O)c1sc2c(c1C)c(=O)n(CCc1ccccc1)c(=O)n2Cc1cc(C)ccc1C` was tested. Which Potency did it give?
A: The Potency was inconclusive: 89.1 µM [inhibitor, single point].

Q: `Cc1nc(-c2ccc(Cl)cc2)sc1C1(C)CC(c2ccc(F)cc2)=NO1` (stereo unspecified) was tested. Which Potency did it give?
A: The Potency was inconclusive: 15.8 µM [inhibitor, partial curve, poor fit].

Q: `CC(=O)N1CCN(c2ccc(NC(=O)c3ccc4ccccc4c3)cc2)CC1` was tested. Which Potency did it give?
A: Its Potency is inconclusive: 35.5 µM [inhibitor, partial curve, poor fit].

Q: With `O=C(Cn1ncc2c3ccccc3n(Cc3cccc(Cl)c3)c2c1=O)Nc1ccc(F)cc1F` as the molecule, how does the Potency read?
A: Its Potency is inconclusive: 79.4 µM [inhibitor, partial curve].

Q: How did the Potency turn out when `CCOc1cc(CNc2ccc3cn[nH]c3c2)ccc1OC` was run?
A: The Potency was inconclusive: 22.4 µM [inhibitor, full curve].

Q: Which Potency does the source give for `CCCC(=O)OCc1cnc(C)c2oc(=O)c(C(=O)Nc3cccc(C(F)(F)F)c3)cc12` here?
A: Its Potency is “inactive”.

Q: With `COc1ccc(CNC(=O)Cn2cnc3c(OCc4ccccc4)ncnc32)cc1` as the molecule, how does the Potency read?
A: The Potency was inconclusive: 39.8 µM [inhibitor, single point].

Q: `O=C(c1ccc(OC2CCN(Cc3ccc(F)cc3)CC2)cc1)N1CCCC1` was tested. Which Potency did it give?
A: The Potency was inconclusive: 56.2 µM [inhibitor, partial curve, poor fit].

Q: How did the Potency turn out when `COc1ccc(NC(=O)Cn2cc(S(=O)(=O)c3ccccc3)c(=O)c3cc4c(cc32)OCO4)cc1` was run?
A: Its Potency is inconclusive: 89.1 µM [inhibitor, single point].

Q: `Cc1cc(C)n(-c2cc(Oc3ccccc3)ncn2)n1` was tested. Which Potency did it give?
A: The Potency was inconclusive: 39.8 µM [inhibitor, partial curve, poor fit].

Q: For `Cc1cc(NC(=O)CSc2nnc3c(C)cc4ccccc4n23)no1`, which Potency is on record?
A: Its Potency is inconclusive: 112 µM [inhibitor, single point].

Q: With `O=C(/C=C/c1ccccc1)NNC(=O)C1CC1` as the molecule, how does the Potency read?
A: The Potency was inconclusive: 89.1 µM [inhibitor, single point].

Q: With `O=C1C=C(Nc2cccc3cccnc23)c2ccccc2C1=O` as the molecule, how does the Potency read?
A: The Potency was active: 17.8 µM.

Q: For `CCCN(CCC)c1nc2c(C)cccn2c(=O)c1/C=C1/SC(=S)N(Cc2ccco2)C1=O`, which Potency is on record?
A: Its Potency is inconclusive: 11.2 µM [inhibitor, partial curve, poor fit].

Q: Which Potency does the source give for `C=C(C)C(=O)Nc1cccc(C2=NOC3(C2)C[C@H](C(N)=O)N(C(=O)CC#N)C3)c1` (stereo partly specified) here?
A: The Potency was inconclusive: 31.6 µM [inhibitor, partial curve, poor fit].

Q: With `Cc1c(C(=O)Nc2ccccc2)sc2nc(-c3cc4cc(Cl)ccc4oc3=O)[nH]c(=O)c12` as the molecule, how does the Potency read?
A: Its Potency is “inactive”.

Q: Which Potency does the source give for `COc1ccc(/C=C/c2ccc3ccccc3[n+]2C)c(OC)c1OC` here?
A: The Potency was inconclusive: 50.1 µM [inhibitor, partial curve].

Q: How did the Potency turn out when `COc1ccc(-c2nc3scc(CCNS(=O)(=O)c4ccc(F)cc4C)n3n2)cc1` was run?
A: Its Potency is “inactive”.

Q: Which Potency does the source give for `CC12CCC(/C(=N/O)C1=O)C2(C)C` (stereo unspecified) here?
A: Its Potency is “inactive”.

Q: How did the Potency turn out when `O=c1/c(=C/c2ccccc2)sc2nnc(-c3cccs3)n12` was run?
A: The Potency was inconclusive: 79.4 µM [inhibitor, partial curve, poor fit].

Q: Which Potency does the source give for `CCC(Oc1ccc(F)cc1)C(=O)Nc1c(C(=O)c2ccc(C)cc2)oc2ccccc12` (stereo unspecified) here?
A: Its Potency is “inactive”.

Q: For `O=C1C(Nc2ccccc2)=C/C(=N/S(=O)(=O)c2cccs2)c2ccccc21`, which Potency is on record?
A: Its Potency is inconclusive: 56.2 µM [inhibitor, partial curve, poor fit].

Q: With `CCc1ccc(C(C)(O)C(CN2CCOCC2)c2ccccc2)cc1` (stereo unspecified) as the molecule, how does the Potency read?
A: The Potency was inconclusive: 39.8 µM [inhibitor, single point].

Q: Which Potency does the source give for `CCOC(=O)c1ccc(S(=O)(=O)N2CCC(C(=O)N3CCN(c4ccccc4OC)CC3)CC2)cc1` here?
A: The Potency was “inactive”.

Q: How did the Potency turn out when `Cc1ccc(Cn2c(CO)cnc2SCC(=O)Nc2ccc(C)c(Cl)c2)cc1` was run?
A: The Potency was “inactive”.

Q: `CN(C)c1ccc(/C=C/c2c(F)cnc3ccccc23)cc1` was tested. Which Potency did it give?
A: Its Potency is “inactive”.

Q: For `COc1ccc(Nc2cc(C(=O)NCCCN3CCN(c4ccccc4F)CC3)c3ccccc3n2)c(OC)c1`, which Potency is on record?
A: Its Potency is “inactive”.

Q: Which Potency does the source give for `CC(C)(C)NC(=O)c1cccc(NC(=O)CSc2ccccc2)c1` here?
A: The Potency was inconclusive: 10 µM [inhibitor, partial curve, poor fit].

Q: How did the Potency turn out when `Cc1ccccc1CN1C2=NCCN2c2ccccc21` was run?
A: The Potency was inconclusive: 17.8 µM [inhibitor, partial curve, poor fit].

Q: With `OCCNCCCCOc1ccccc1F` as the molecule, how does the Potency read?
A: The Potency was inconclusive: 79.4 µM [inhibitor, single point].

Q: `C=CC(=O)Nc1cccc(CN2C(=O)N(c3cc(OC)cc(OC)c3)Cc3cnc(NCCCCN(CC)CC)nc32)c1` was tested. Which Potency did it give?
A: The Potency was inconclusive: 79.4 µM [inhibitor, single point].

Q: `CCOC(=O)c1nn(-c2ccc(C)cc2)c(=O)cc1OCC(=O)Nc1ccc(OC)cc1` was tested. Which Potency did it give?
A: The Potency was “inactive”.

Q: Which Potency does the source give for `CCc1cc2c(=O)c(-c3nc4ccccc4n3C)c(C)oc2cc1OC(C)=O` here?
A: The Potency was inconclusive: 56.2 µM [inhibitor, partial curve, poor fit].

Q: `CC(C)Nc1nc(NC(C)C)nc(N(C#N)CCOc2ccc(Cl)cc2Cl)n1` was tested. Which Potency did it give?
A: Its Potency is inconclusive: 56.2 µM [inhibitor, partial curve, poor fit].

Q: With `CCCc1ccc(OC(=O)c2cccs2)cc1` as the molecule, how does the Potency read?
A: The Potency was inconclusive: 89.1 µM [inhibitor, single point].

Q: For `N#C/C(=C\c1ccc(C#N)cc1)C(=O)c1ccccc1`, which Potency is on record?
A: Its Potency is inconclusive: 39.8 µM [inhibitor, single point].

Q: Which Potency does the source give for `O=C(NCc1ccc(Cl)cc1)NC1COc2ccccc2C1` (stereo unspecified) here?
A: Its Potency is “inactive”.

Q: Which Potency does the source give for `CCOC(=O)C1CCN(c2c(NCCCN(CC)Cc3ccccc3)c(=O)c2=O)CC1` here?
A: The Potency was inconclusive: 89.1 µM [inhibitor, single point].

Q: `CCc1nnc(NC(=O)C2CC(=O)N(Cc3ccccc3)C2)s1` (stereo unspecified) was tested. Which Potency did it give?
A: The Potency was inconclusive: 3.98 µM [inhibitor, full curve, poor fit].

Q: How did the Potency turn out when `Cc1c(NC(=O)c2cnn3c2NC(c2ccccc2)CC3C(F)(F)F)c(=O)n(-c2ccccc2)n1C` (stereo unspecified) was run?
A: The Potency was “inactive”.

Q: `Cc1ccc(C(=O)Nc2nnc(-c3ccncc3)o2)cc1` was tested. Which Potency did it give?
A: Its Potency is “inactive”.

Source: PubChem BioAssay AID588590 (National Center for Advancing Translational Sciences (NCATS), 2011)
